Measurements: PubChem BioAssay AID328 (DTP/NCI, 2004)
The list shows only some results of the screen, not a fair sample: it gathers tests that were run many times, whatever their T/C, doses with no T/C, and many T/C values between a quarter and a half above the control. Other doses and runs of a compound stand elsewhere. T/C: endpoint of the treated group in % of that of the vehicle group. Some entries give survivors of the animals treated and no T/C: the source holds a T/C of zero for them, seemingly a mark for toxic or unscored doses. Some doses without a T/C left all or most animals alive at the check, yet need not have been tolerated: survival well below the control is almost never listed, so the zero probably covers shortened survival too. Survivors were counted at the toxicity check, usually on the fifth day, unless a day is given; later deaths do not show. Schedules are NCI's codes, taken here to give the interval after Q, in days (D) or hours (H), and the number of doses after X. Some doses were run more than once; the results are listed from low to high. Where survival is the endpoint, this PubChem deposit counts one and a half times the control or more as active, and values a quarter to a half above the control carry no call in these data; other NCI protocols may use other cut-offs. Some T/C values are followed by the survivors on the day toxicity was checked, most often the fifth; where none is given, no animal had died by that day. Starred links: 1 amine or outer side, 2 acyl side, 3 side chain; linkers in the order of their positions; H or OH if unused. Positions of bridges follow the written chain, without caps; N, C: chain ends. Non-standard residues stand in square brackets, D forms with d. Residues, ends and D or L forms follow the SMILES beside them. Chains are numbered I, II in the order given. *: point of attachment. Actinocin(9to1) = Cc1c2oc3c(C)ccc(C(=O)[*:1])c3nc-2c(C(=O)[*:2])c(N)c1=O; NMeV = CN[CH](C(=O)O)C(C)C; Pip = O=C(O)[CH]1CCCCN1; Boc = CC(C)(C)OC(=O)*; OBn = c1ccc(CO*)cc1; Sar = CNCC(=O)O

Test system: BDF1 mice, P388 leukemia ip, median survival T/C
Experiment: NCI In Vivo Anticancer Drug Screen. Data for tumor model P388 Leukemia (intraperitoneal) in B6D2F1 (BDF1) mice
Settings: T/C endpoint: median survival time, higher T/C = longer survival
How it was run: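 Reported as T/C, where T is the survival measurement in dosed animals and C the same measurement in vehicle controls.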

[1] = dose: 50.0 mg/kg/injection, schedule: Q01DX009 (ip), vehicle: saline with Tween-80
[2] = dose: 200.0 mg/kg/injection, schedule: Q01DX009 (ip), vehicle: saline with Tween-80
[3] = dose: 400.0 mg/kg/injection, schedule: Q01DX009 (ip), vehicle: saline with Tween-80
[4] = dose: 50.0 mg/kg/injection, schedule: Q01DX009 (ip), vehicle: saline
[5] = dose: 100.0 mg/kg/injection, schedule: Q01DX009 (ip), vehicle: saline
[6] = dose: 100.0 mg/kg/injection, schedule: Q04DX003 (ip), vehicle: saline
[7] = dose: 200.0 mg/kg/injection, schedule: Q04DX003 (ip), vehicle: saline

**Q.** What does the source list for `O=C(O)CP(=O)(O)O`?
**A.** T/C (dose: 250.0 mg/kg/injection, schedule: Q04DX024 (ip), vehicle: saline): 128 % of control; T/C (dose: 500.0 mg/kg/injection, schedule: Q03HX024 (ip), vehicle: saline): 129 % of control; T/C (dose: 500.0 mg/kg/injection, schedule: Q04DX024 (ip), vehicle: saline): 146 % of control; T/C (dose: 750.0 mg/kg/injection, schedule: Q03HX024 (ip), vehicle: saline): 144 % of control [9 of 10 alive]

**Q.** Which results are given for `O=C1C(CC=C(Cl)Cl)=C(OC2OC(CO)C(O)C(O)C2O)C(=O)c2ccccc21` (centres undefined)?
**A.** T/C (dose: 12.5 mg/kg/injection, schedule: Q01DX009 (ip), vehicle: saline with Tween-80): 134 % of control; survivor count (dose: 25.0 mg/kg/injection, schedule: Q01DX009 (ip), vehicle: saline with Tween-80): 6 of 6; survivor count [1]: 1 of 6; survivor count (dose: 100.0 mg/kg/injection, schedule: Q01DX009 (ip), vehicle: saline with Tween-80): 0 of 6; survivor count [2]: 0 of 6

**Q.** With `C1=C(c2ccccc2)OC(c2ccccc2)C1c1ccccc1` (centres undefined) as the molecule, how does the survivor count (dose: 100.0 mg/kg/injection, schedule: Q01DX005 (ip), vehicle: saline with Tween-80) read?
**A.** Its survivor count is 5 of 5.

**Q.** For `Clc1ccc(CSc2ncnc3nc[nH]c23)cc1`, which survivor count [3] is on record?
**A.** The survivor count was 0 of 6.

**Q.** With `Cc1c2oc3c(C)ccc(C(=O)NC4C(=O)NC(C(C)C)C(=O)N5CCCCC5C(=O)N(C)CC(=O)N(C)C(C(C)C)C(=O)OC4C)c3nc-2c(C(=O)NC2C(=O)NC(C(C)C)C(=O)N3CCCCC3C(=O)N(C)CC(=O)N(C)C(C(C)C)C(=O)OC2C)c(N)c1=O` (centres undefined) (I: TV[Pip][Sar][NMeV] / II: TV[Pip][Sar][NMeV]; ester I:1-I:C, II:1-II:C; linker I:N-II:N via Actinocin(9to1); configuration not given here) as the molecule, how does the T/C (dose: 0.15 mg/kg/injection, schedule: Q01DX010 (ip), vehicle: other) read?
**A.** The T/C was 140 % of control.

**Q.** What about the T/C (dose: 0.3 mg/kg/injection, schedule: Q01DX010 (ip), vehicle: other) of the same molecule?
**A.** Its T/C is 140 % of control.

**Q.** What about the T/C (dose: 0.5 mg/kg/injection, schedule: Q01DX009 (ip), vehicle: saline + alcohol) of the same molecule?
**A.** Its T/C is 135 % of control.

**Q.** What about the T/C (dose: 1.0 mg/kg/injection, schedule: Q01DX009 (ip), vehicle: saline + alcohol) of the same molecule?
**A.** The T/C was 142 % of control.

**Q.** And the T/C (dose: 1.5 mg/kg/injection, schedule: Q04DX003 (ip), vehicle: saline + alcohol)?
**A.** Its T/C is 128 % of control.

**Q.** And the T/C (dose: 3.0 mg/kg/injection, schedule: Q04DX003 (ip), vehicle: saline + alcohol)?
**A.** Its T/C is 144 % of control.

**Q.** With `Cc1ccc(C)c(C(=O)CCC(=O)O)c1` as the molecule, how does the survivor count [1] read?
**A.** The survivor count was 6 of 6.

**Q.** What about the survivor count (dose: 100.0 mg/kg/injection, schedule: Q04DX003 (ip), vehicle: saline with Tween-80) of the same molecule?
**A.** The survivor count was 6 of 6.

**Q.** And the survivor count [3]?
**A.** The survivor count was 3 of 6.

**Q.** Which results are given for `Nc1cc[c]([Hg][Cl])cc1`?
**A.** survivor count (dose: 12.0 mg/kg/injection, schedule: Q01DX001 (ip), vehicle: Klucel (hydroxypropylcellulose) (HPC)): 0 of 6; survivor count (dose: 25.0 mg/kg/injection, schedule: Q01DX001 (ip), vehicle: Klucel (hydroxypropylcellulose) (HPC)): 1 of 6 and 3 of 6; survivor count (dose: 50.0 mg/kg/injection, schedule: Q01DX001 (ip), vehicle: Klucel (hydroxypropylcellulose) (HPC)): 0 of 6; survivor count (dose: 100.0 mg/kg/injection, schedule: Q01DX001 (ip), vehicle: Klucel (hydroxypropylcellulose) (HPC)): 0 of 6; survivor count (dose: 200.0 mg/kg/injection, schedule: Q01DX001 (ip), vehicle: Klucel (hydroxypropylcellulose) (HPC)): 0 of 6; survivor count (dose: 400.0 mg/kg/injection, schedule: Q01DX001 (ip), vehicle: Klucel (hydroxypropylcellulose) (HPC)): 0 of 6

**Q.** With `COc1ccc(/C=C(C(=O)O)/C(=C/c2ccc(OC)c(OC)c2)C(=O)O)cc1OC` as the molecule, how does the T/C (dose: 100.0 mg/kg/injection, schedule: Q04DX003 (ip), vehicle: Klucel (hydroxypropylcellulose) (HPC)) read?
**A.** Its T/C is 125 % of control.

**Q.** `O=C1Cc2ccc3c(c2O1)C(=O)c1ccccc1C3=O` was tested. Which T/C (dose: 400.0 mg/kg/injection, schedule: Q04DX002 (ip), vehicle: saline with Tween-80) did it give?
**A.** The T/C was 135 % of control.

**Q.** For `COc1cc2ccc3c(c2cc1OC)N(C)C(OC)c1cc2c(cc1-3)OCO2` (centres undefined), which T/C (dose: 40.0 mg/kg/injection, schedule: Q01DX009 (ip), vehicle: water) is on record?
**A.** Its T/C is 136 % of control.

**Q.** What about the T/C (dose: 80.0 mg/kg/injection, schedule: Q01DX009 (ip), vehicle: water) of the same molecule?
**A.** The T/C was 145 % of control.

**Q.** And the T/C (dose: 120.0 mg/kg/injection, schedule: Q01DX009 (ip), vehicle: water)?
**A.** Its T/C is 145 % of control.

**Q.** Which survivor count (dose: 400.0 mg/kg/injection, schedule: Q04DX003 (ip), vehicle: saline with Tween-80) does the source give for `C[N+](C)(Cn1ncc2cc([N+](=O)[O-])ccc21)Cn1ncc2cc([N+](=O)[O-])ccc21` here?
**A.** The survivor count was 2 of 6.

**Q.** For `COc1cc(NCCCCCCCNC(C)C)c2nccc(C)c2c1`, which T/C (dose: 12.5 mg/kg/injection, schedule: Q01DX009 (ip), vehicle: saline) is on record?
**A.** The T/C was 125 and 127 % of control.

**Q.** What about the survivor count [4] of the same molecule?
**A.** The survivor count was 5 of 6.

**Q.** What about the survivor count [5] of the same molecule?
**A.** The survivor count was 0 of 6.

**Q.** What about the survivor count (dose: 200.0 mg/kg/injection, schedule: Q01DX009 (ip), vehicle: saline) of the same molecule?
**A.** The survivor count was 0 of 6.

**Q.** For `O=NN(CCCl)C(=O)Nc1cc(NC(=O)N(CCCl)N=O)cc(C(=O)O)c1`, which T/C (dose: 0.12 mg/kg/injection, schedule: Q04DX003 (ip), vehicle: saline with Tween-80) is on record?
**A.** Its T/C is 133 and 145 % of control.

**Q.** And the T/C (dose: 0.18 mg/kg/injection, schedule: Q04DX003 (ip), vehicle: saline with Tween-80)?
**A.** Its T/C is 136 % of control.

**Q.** And the T/C (dose: 0.25 mg/kg/injection, schedule: Q04DX003 (ip), vehicle: saline with Tween-80)?
**A.** Its T/C is 145 % of control.

**Q.** And the T/C (dose: 0.5 mg/kg/injection, schedule: Q04DX003 (ip), vehicle: saline with Tween-80)?
**A.** The T/C was 145 % of control.

**Q.** What about the T/C (dose: 13.0 mg/kg/injection, schedule: Q04DX003 (ip), vehicle: saline with Tween-80) of the same molecule?
**A.** Its T/C is 131 % of control.

**Q.** What about the T/C (dose: 30.0 mg/kg/injection, schedule: Q04DX003 (ip), vehicle: saline with Tween-80) of the same molecule?
**A.** The T/C was 140 % of control.

**Q.** And the survivor count (dose: 60.0 mg/kg/injection, schedule: Q04DX003 (ip), vehicle: saline with Tween-80)?
**A.** Its survivor count is 6 of 6.

**Q.** Which T/C [4] does the source give for `CN1CCC2=C(C1)C(c1ccccc1)c1ccccc12` (centres undefined) here?
**A.** Its T/C is 125 % of control.

**Q.** What about the survivor count [5] of the same molecule?
**A.** Its survivor count is 4 of 6.

**Q.** Which results are given for `O=C([CH-]C(=O)C(F)(F)F)c1ccccc1.O=C([CH-]C(=O)C(F)(F)F)c1ccccc1.O=C([CH-]C(=O)C(F)(F)F)c1ccccc1.O=C([CH-]C(=O)C(F)(F)F)c1ccccc1.[Eu+3].c1ccncc1`?
**A.** T/C (dose: 50.0 mg/kg/injection, schedule: Q01DX009 (ip), vehicle: Klucel (hydroxypropylcellulose) (HPC)): 128 % of control; T/C (dose: 200.0 mg/kg/injection, schedule: Q01DX009 (ip), vehicle: Klucel (hydroxypropylcellulose) (HPC)): 136 % of control

**Q.** `NC(CSC(c1ccccc1)(c1ccccc1)c1ccc(Br)cc1)C(=O)O` (centres undefined) was tested. Which T/C (dose: 15.0 mg/kg/injection, schedule: Q04DX003 (ip), vehicle: Klucel (hydroxypropylcellulose) (HPC)) did it give?
**A.** The T/C was 145 % of control.

**Q.** What about the T/C [1] of the same molecule?
**A.** Its T/C is 125 % of control.

**Q.** What about the T/C [6] of the same molecule?
**A.** Its T/C is 145 % of control.

**Q.** What about the survivor count [2] of the same molecule?
**A.** The survivor count was 5 of 6.

**Q.** What about the T/C [7] of the same molecule?
**A.** The T/C was 140 % of control.

**Q.** What about the survivor count [7] of the same molecule?
**A.** Its survivor count is 4 of 6.

**Q.** With `CCOC(=O)C1=C(C)NC(C)=C(C(=O)OCC)C1c1ccc([N+](=O)[O-])s1` as the molecule, how does the survivor count [2] read?
**A.** Its survivor count is 6 of 6.

**Q.** Which survivor count (dose: 200.0 mg/kg/injection, schedule: Q01DX005 (ip), vehicle: saline with Tween-80) does the source give for `CC(C)(C)OC(=O)NCC(=O)NCC(=O)NCC(=O)OCc1ccccc1` (Boc-Gly-Gly-Gly-OBn) here?
**A.** The survivor count was 4 of 5.

**Q.** How did the T/C [6] turn out when `Cc1ncc([N+](=O)[O-])n1CCSC(Cl)(Cl)Cl` was run?
**A.** Its T/C is 138 % of control.

**Q.** For `CC1(C)N=C(N)N=C(N)N1c1ccc(CCc2ccccc2)c(Cl)c1`, which T/C (dose: 6.0 mg/kg/injection, schedule: Q01DX009 (ip), vehicle: saline with Tween-80) is on record?
**A.** Its T/C is 136 % of control.

**Q.** And the T/C (dose: 9.0 mg/kg/injection, schedule: Q01DX009 (ip), vehicle: saline with Tween-80)?
**A.** The T/C was 136 % of control.

**Q.** `N=Nc1c2ccccc2c2nc3c(N)[nH]nc(N)c3nc12` was tested. Which survivor count (dose: 200.0 mg/kg/injection, schedule: Q04DX003 (ip), vehicle: saline with Tween-80) did it give?
**A.** The survivor count was 6 of 6.
